In PubChem BioAssay AID1273 (Columbia University Molecular Screening Center, 2008):
This is one part of the list. Further columns of the screen follow, without active or inactive calls. The list favours compounds with an active or inconclusive main result.

Test: insulin gene promoter suppression in islet cells – imaging, TRM-6 cells (human fetal islet line), eGFP reporter, cell count, primary screen (AID 1273;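 also: cells exposed to compound for 48 h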)
Conditions: measured here: cell count, toxicity, at 2 µM, reporter expression induced with tamoxifen

Structure (SMILES)	normalized cell count
O=C(Nc1ccsc1C(=O)NC1CC1)c1ccccc1	132%
CCCNc1nc(OC(C(F)(F)F)C(F)(F)F)nc(OC(C(F)(F)F)C(F)(F)F)n1	149%
O=C(Nc1cccs1)Nc1ccc(Br)cc1F	190%
CCN(CC)C(c1ccc(F)cc1)c1nnnn1CC1CCCO1 (stereo unspecified)	97.2%
COc1ccc(C(=O)N2CCN(C(C)=O)CC2)cc1S(=O)(=O)NCc1ccc(Cl)cc1	154%
CCC(=O)Nc1cc(C)c(NC(=O)C23CC4CC(CC(C4)C2)C3)cn1	50.8%
COc1ccc(CCNC(=O)C2CCN(S(=O)(=O)c3c(C)noc3C)CC2)cc1OC	68.2%
COc1ccc(N2CCN(C(=O)CN(c3ccc(Br)cc3)S(C)(=O)=O)CC2)cc1	26.9%
N#CC1=C2SCN(Cc3ccccc3)CN2C(=O)CC1c1ccc2c(c1)OCO2 (stereo unspecified)	106%
CN(C)S(=O)(=O)c1ccc(N2CCCC2)c(C(=O)NCC2CCCCC2)c1	70.6%
COC(=O)c1cc(-c2ccc(Cl)cc2Cl)n[nH]1	77.8%
Cc1cccc(-n2c3nc(=O)[nH]c(=O)c-3cc3c(C)nn(-c4ccccc4)c32)c1	45.2%
O=C(CCCOc1ccc(Cl)cc1Cl)N/N=C/c1ccco1	120%
CCOc1ccc(NC(=O)c2cnccn2)cc1	45%
N#Cc1c(N2CCN(C(=O)c3ccco3)CC2)nc(-c2ccccc2)c2c1CCCC2	108%
Cc1ccc(SCCC(=O)N/N=C/c2ccncc2)cc1	152%

Of the compounds above, two have a cyano group.
Structure (SMILES)	normalized cell count
N#CC1=C2SCN(Cc3ccccc3)CN2C(=O)CC1c1ccc2c(c1)OCO2 (stereo unspecified)	106%
N#Cc1c(N2CCN(C(=O)c3ccco3)CC2)nc(-c2ccccc2)c2c1CCCC2	108%

Next entries

Structure (SMILES)	normalized cell count
COc1ccc(C2=NCC(CSc3nccc(=O)[nH]3)S2)cc1 (stereo unspecified)	123%
COc1cc(NC(=O)c2cccs2)c(C(=O)OCC(=O)NC(C)c2ccccc2)cc1OC (stereo unspecified)	48.3%
Cc1nc(S(=O)(=O)Cc2ccccc2Cl)nc2c1CCC2	119%
CCOC(=O)C1CCCN(C2CC(=O)N(c3ccc(C)cc3)C2=O)C1 (stereo unspecified)	82.9%
O=C(NNC(=S)NCC1CCCO1)c1cccc(S(=O)(=O)N2CCOCC2)c1 (stereo unspecified)	76.6%
COCCN1C(=O)c2ccccc2C(C(=O)NCCN(C)C)C1c1ccc(F)cc1 (stereo unspecified)	79.5%
O=C(O)C1CCCCC1C(=O)Nc1ccc(Cl)cc1 (stereo unspecified)	131%
CCn1cc(Cl)c(C(=O)N2N=C(c3ccc4ccccc4c3)CC2c2ccccc2O)n1 (stereo unspecified)	111%
Cc1ccc(OCC(=O)N/N=C/c2cccn2C)cc1	43.1%
CCc1c(C)[nH]c2ccc(C)cc2c1=O	72%
CC(C)(C)CC(=O)NCc1ccc(F)cc1	26.4%
Cc1cccc(C)c1NC(=O)COC(=O)Cc1ccsc1	237%
CN1C(=O)/C(=C/C=C2\SCCN2C)N(C)C1=S	83.3%
COc1cc(OC)c(S(=O)(=O)N2CCCCC2)cc1S(=O)(=O)N1CCCCC1	111%
O=C(CCC(=O)c1cccs1)c1cccs1	123%
